The list is a part of this screen's results and no random one: it gathers tests that were run many times, whatever their T/C, doses with no T/C, and many T/C values between a quarter and a half above the control. Further doses and runs are listed elsewhere. T/C: endpoint of the treated group in % of that of the vehicle group. Some doses have a count of surviving animals in place of a T/C: the source holds a T/C of zero for them, seemingly a mark for toxic or unscored doses. Some doses without a T/C left all or most animals alive at the check, yet need not have been tolerated: survival well below the control is almost never listed, so the zero probably covers shortened survival too. Counts of survivors are from the toxicity check (mostly the fifth day) where no day follows; animals may have died later. Schedule codes are those of the source, read here as Q, the interval in days (D) or hours (H), X, the number of doses. Some schedules carry Z or #; the key to these is not given. Where survival is the endpoint, this PubChem deposit counts one and a half times the control or more as active, and values a quarter to a half above the control carry no call in these data; other NCI protocols may use other cut-offs. Some doses were run more than once; their values stand side by side, smallest first. Some T/C values carry the count of animals alive at the toxicity check (mostly the fifth day); where none is given, no animal had died by that day.
Test system: L1210 leukemia ip in BDF1 mice, survival T/C
Experiment: NCI In Vivo Anticancer Drug Screen. Data for tumor model L1210 Leukemia (intraperitoneal) in B6D2F1 (BDF1) mice
Conditions: higher T/C = longer survival
[1] = T/C endpoint: mean survival time, dose: 400.0 mg/kg/injection, schedule: Q01DX009 (ip), vehicle: Klucel (hydroxypropylcellulose) (HPC)
[2] = T/C endpoint: mean survival time, dose: 200.0 mg/kg/injection, schedule: Q01DX001 (ip), vehicle: saline
[3] = T/C endpoint: mean survival time, dose: 400.0 mg/kg/injection, schedule: Q01DX001 (ip), vehicle: saline
[4] = T/C endpoint: mean survival time, dose: 100.0 mg/kg/injection, schedule: Q01DX Z (ip), vehicle: carboxymethylcellulose (CMC)

SMILES: CCCCn1ccnc1
- survivor count (T/C endpoint: mean survival time, dose: 50.0 mg/kg/injection, schedule: Q04DX003 (ip), vehicle: saline): 1 of 6
- survivor count (T/C endpoint: mean survival time, dose: 100.0 mg/kg/injection, schedule: Q04DX003 (ip), vehicle: saline): 0 of 6
- survivor count (T/C endpoint: mean survival time, dose: 200.0 mg/kg/injection, schedule: Q04DX003 (ip), vehicle: saline): 0 of 6
- survivor count (T/C endpoint: mean survival time, dose: 400.0 mg/kg/injection, schedule: Q04DX003 (ip), vehicle: saline): 0 of 6

SMILES: O=C(O)c1cccc(OCc2ccccc2)c1
- survivor count [1]: 2 of 6

SMILES: O=C1c2cccc3c([N+](=O)[O-])ccc(c23)C(=O)N1CC1CCCO1 (stereo not given)
- survivor count [1]: 6 of 6

SMILES: [Mn+2].[NH-]CC(=O)O.[NH-]CC(=O)O
- survivor count [2]: 1 of 6
- survivor count [3]: 0 of 6

SMILES: O=C(O)c1cc(S(=O)(=O)Cl)ccc1Cl
- survivor count (T/C endpoint: mean survival time, dose: 200.0 mg/kg/injection, schedule: Q04DX003 (ip), vehicle: Klucel (hydroxypropylcellulose) (HPC)): 2 of 6
- survivor count (T/C endpoint: mean survival time, dose: 400.0 mg/kg/injection, schedule: Q01DX001 (ip), vehicle: carboxymethylcellulose (CMC)): 1 of 6

SMILES: OCCN1CCN(CCCN2c3ccccc3Sc3cccnc32)CC1
- T/C (T/C endpoint: mean survival time, dose: 80.0 mg/kg/injection, schedule: Q01DX009 (ip), vehicle: saline): 131 % of control [5 of 6 alive]
- survivor count (T/C endpoint: mean survival time, dose: 160.0 mg/kg/injection, schedule: Q01DX009 (ip), vehicle: saline): 0 of 6
- T/C (T/C endpoint: median survival time, dose: 80.0 mg/kg/injection, schedule: Q01DX009 (ip), vehicle: saline): 134 % of control [5 of 6 alive]
- survivor count (T/C endpoint: median survival time, dose: 160.0 mg/kg/injection, schedule: Q01DX009 (ip), vehicle: saline): 0 of 6

SMILES: Nc1ccc(C(=O)O)c(C(=O)O)c1
- survivor count (T/C endpoint: mean survival time, dose: 400.0 mg/kg/injection, schedule: Q01DX009 (ip), vehicle: saline with Tween-80): 3 of 6

SMILES: O=[N+]([O-])c1ccc(C[Se]c2ncnc3c2ccn3C2OC(CO)C(O)C2O)cc1 (stereo not given)
- survivor count (T/C endpoint: mean survival time, dose: 50.0 mg/kg/injection, schedule: Q01DX005 (ip), vehicle: saline): 0 of 6

SMILES: CN1CCC23c4c5ccc(O)c4OC2C(=O)CCC3C1C5 (stereo not given)
- survivor count (T/C endpoint: mean survival time, dose: 150.0 mg/kg/injection, schedule: Q01DX001 (ip), vehicle: saline): 2 of 6
- survivor count (T/C endpoint: mean survival time, dose: 300.0 mg/kg/injection, schedule: Q01DX001 (ip), vehicle: saline): 0 of 6

SMILES: O=C(O)c1ccc(N/N=C\c2cc(=O)[nH]c(=O)[nH]2)cc1
- survivor count (T/C endpoint: mean survival time, dose: 80.0 mg/kg/injection, schedule: Q01DX001 (ip), vehicle: saline): 0 of 4
- survivor count (T/C endpoint: mean survival time, dose: 100.0 mg/kg/injection, schedule: Q01DX001 (ip), vehicle: saline): 1 of 4
- survivor count [2]: 1 of 4
- survivor count [3]: 2 of 4

SMILES: COc1cc(-c2ccc(Nc3ccccc3C(=O)O)c(OC)c2)ccc1Nc1ccccc1C(=O)O
- T/C (T/C endpoint: mean survival time, dose: 44.0 mg/kg/injection, schedule: Q01DX Z (ip), vehicle: saline): 127 % of control
- survivor count (T/C endpoint: mean survival time, dose: 65.0 mg/kg/injection, schedule: Q01DX Z (ip), vehicle: carboxymethylcellulose (CMC)): 3 of 6
- T/C (T/C endpoint: mean survival time, dose: 98.0 mg/kg/injection, schedule: Q01DX Z (ip), vehicle: saline): 134 % of control
- survivor count (T/C endpoint: mean survival time, dose: 100.0 mg/kg/injection, schedule: Q01DX006 (iv), vehicle: carboxymethylcellulose (CMC)): 1 of 6
- T/C [4]: 101, 103, 129 % of control
- survivor count [4]: 0 of 6
- T/C (T/C endpoint: mean survival time, dose: 100.0 mg/kg/injection, schedule: Q01DX Z (ip), vehicle: saline): 132 % of control
- survivor count (T/C endpoint: mean survival time, dose: 149.0 mg/kg/injection, schedule: Q01DX Z (ip), vehicle: carboxymethylcellulose (CMC)): 0 of 6
- survivor count (T/C endpoint: mean survival time, dose: 150.0 mg/kg/injection, schedule: Q01DX Z (ip), vehicle: carboxymethylcellulose (CMC)): 0 of 6
- T/C (T/C endpoint: mean survival time, dose: 150.0 mg/kg/injection, schedule: Q01DX Z (ip), vehicle: saline): 135 % of control
- survivor count (T/C endpoint: mean survival time, dose: 200.0 mg/kg/injection, schedule: Q01DX006 (iv), vehicle: carboxymethylcellulose (CMC)): 0 of 6
- survivor count (T/C endpoint: mean survival time, dose: 223.0 mg/kg/injection, schedule: Q01DX Z (ip), vehicle: saline): 3 of 6
- survivor count (T/C endpoint: mean survival time, dose: 400.0 mg/kg/injection, schedule: Q01DX006 (iv), vehicle: carboxymethylcellulose (CMC)): 0 of 6
- survivor count (T/C endpoint: mean survival time, dose: 400.0 mg/kg/injection, schedule: Q01DX Z (ip), vehicle: carboxymethylcellulose (CMC)): 6 of 6
- survivor count (T/C endpoint: mean survival time, dose: 440.0 mg/kg/injection, schedule: Q01DX Z (ip), vehicle: saline): 2 of 7
- survivor count (T/C endpoint: mean survival time, dose: 800.0 mg/kg/injection, schedule: Q01DX015 (ip), vehicle: saline): 4 of 6

SMILES: C1=Cc2ccccc2/C1=C/c1cccc(/C=C2\C=Cc3ccccc32)c1
- survivor count (T/C endpoint: mean survival time, dose: 50.0 mg/kg/injection, schedule: Q04DX003 (ip), vehicle: saline with Tween-80): 6 of 6

SMILES: O=c1cccc2n1Cc1cc3ccccc3nc1-2
- survivor count (T/C endpoint: mean survival time, dose: 150.0 mg/kg/injection, schedule: Q04DX003 (ip), vehicle: saline): 3 of 5

— PubChem BioAssay AID248 (DTP/NCI, 2004)
